# From patent publication US20210163601A1
# By UniProt entry, the sequences of proteins in these tests, tags left out. Where a name states a change or a piece, a line headed by the entry shows the natural chain unless it says otherwise.
# UniProt P07307: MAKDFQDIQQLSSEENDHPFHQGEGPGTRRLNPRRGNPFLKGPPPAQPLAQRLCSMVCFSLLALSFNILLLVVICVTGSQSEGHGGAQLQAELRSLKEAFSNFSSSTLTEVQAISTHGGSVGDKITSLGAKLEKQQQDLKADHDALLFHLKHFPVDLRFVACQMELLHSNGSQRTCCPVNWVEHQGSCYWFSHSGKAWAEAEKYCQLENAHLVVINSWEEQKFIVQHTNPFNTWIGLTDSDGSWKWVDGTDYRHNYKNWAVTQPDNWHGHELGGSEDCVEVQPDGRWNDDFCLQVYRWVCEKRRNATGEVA
# Results are given in words; binding and its absence hold for the method and conditions named. Some binding calls cover weakened binding; strength is not graded here.
# Target: Human ASGR-2 (human) (UniProt P07307)
# Assay: FACS, transfected HEK 293 cells or membrane-prep beads
row,binding,Binder
1,binds,"7F4 (antibody, V domains shown) VH: QLQLQESGPGLVKPSETLSLTCTVSGGSISRSSYYWGWIRQPPGKGLEWIGNIYYSGATYYNPSLKSRVTISVDTSTNQFSLKLSSVTAADTAVYYCARHSGSWSLDYWGQGTLVTVSS VL: DIQMTQSPSSLSASVGDRVTITCRTSQGIRNDLGWYQQKPGKAPKRLIYAASNLQSGVPSRFSGSGSGTEFTLTISSLQPEDFATYYCLQHSAYPLTFGGGTKVEIK"
2,binds,"6G7 (antibody, V domains shown) VH: QVQLVESGGGVVQPGRSLRLSCAASGFTFSSYGMHWVRQTPGKGLEWVAIISYVGKNKYYADSVKGRFTISRDNSKNTLYLQMNSLRAEDTAVYYCARRGNSYGGYGMDVWGQGTTVTVSS VL: DIQMTQSPSSRSASVGDRVTITCQASQDISNYLNWCQQKPGKALKLLIYDASTLETGVPSRFSGSGSGTDFTFTISSVQPEDIATYYCQQYDNVPITFGQGTRLEIK"
